According to PMC7819943, “Rice protein-binding microarrays: a tool to detect cis-acting elements near promoter regions in rice”:
The list shows a part of the results.

Amino acid sequences for entries named in this document (tags omitted).
UniProt Q0JBA9, entry or part of it: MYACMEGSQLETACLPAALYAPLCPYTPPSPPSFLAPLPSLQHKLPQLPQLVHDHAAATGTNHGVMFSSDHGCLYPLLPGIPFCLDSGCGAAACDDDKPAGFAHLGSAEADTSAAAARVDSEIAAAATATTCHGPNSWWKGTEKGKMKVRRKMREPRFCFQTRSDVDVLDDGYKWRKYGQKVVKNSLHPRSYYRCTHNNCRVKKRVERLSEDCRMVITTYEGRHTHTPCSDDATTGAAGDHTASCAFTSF

Target: OsWRKY34 (Oryza sativa, UniProt Q0JBA9 1-250)
Assay: protein-binding microarray (RPBM); PBS, 2% BSA, 51.3 ng/ul salmon testes DNA, 50 uM zinc acetate, 200 nM TF, 25 C, 1 h; high values mean tight binding
Conditions: protein: recombinant; tags: N-terminal polyhistidine and DsRed monomer fusion (pET32a); label: CyDye5-dUTP incorporated in the synthesized complementary strand; 3' TTTTT single-stranded linker to array surface; dsDNA, one strand shown
Method in brief: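 Transcription factors, each fused N-terminally to a polyhistidine tag and DsRed, were expressed in E. coli BL21-CodonPlus and purified on Ni–NTA. A custom Agilent array was made double-stranded by primer extension with Cy5-dUTP and blocked with 2% BSA. It was incubated with 200 nM protein in PBS, 2% BSA, salmon testes DNA and 50 µM zinc acetate at 25 °C for 1 h, then washed. The binding signal is per-feature fluorescence intensity (arbitrary units) read on an Axon 4000B scanner.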

Sequence	binding signal
CTTTATGTATAGGTGTTTCTATTCTCATATGACTGATGTACGGAGTCACCTAGTGCAG	8530 fluorescence intensity (a.u.)
ACCCTAGAGCTCACCCTAGCGCGCCGCCGCCGCAGCCATCCGGAGTCACCTAGTGCAG	10100 fluorescence intensity (a.u.)
GAGAGTAAGGATCAGGAGGAGGTGGAGGAGGAGGAGGATGCGGAGTCACCTAGTGCAG	8300 fluorescence intensity (a.u.)
TCTACGTTGCGGCATTGGCTGGGATTCTTGAGGGATTTCGCGGAGTCACCTAGTGCAG	9420 fluorescence intensity (a.u.)
AAATCAAATGCGCACCGTGTGCTCTCATGTTGAAATTTCACGGAGTCACCTAGTGCAG	8400 fluorescence intensity (a.u.)
TCCGCCGCCGTCTCCGCCGCCTCCAGCCATCGATCCCGGCCGGAGTCACCTAGTGCAG	8250 fluorescence intensity (a.u.)
CTCGTCTCGTCTCGCCGACCGACCCATCCATCCATCGATCCGGAGTCACCTAGTGCAG	9150 fluorescence intensity (a.u.)
CTCTTCTCCTCCAAGGATGGGGAGGTGGGGATGGTGGGGACGGAGTCACCTAGTGCAG	19400 fluorescence intensity (a.u.)
AATTGCCACCTGTTTCCGCATCCGCCTCTACCGAGGTTTTCGGAGTCACCTAGTGCAG	8220 fluorescence intensity (a.u.)
CTTCTCTGGTCCCGGCCGGCCTTCCCCTAGATCTTCAGATCGGAGTCACCTAGTGCAG	8430 fluorescence intensity (a.u.)
CACGGCCACACATTTCTCCATTTCTAATCACCTTGGATGCCGGAGTCACCTAGTGCAG	9940 fluorescence intensity (a.u.)
ATTAAAAAAGGGAGAAACGGGCGGGGTGCTTGGCTTGACCCGGAGTCACCTAGTGCAG	8840 fluorescence intensity (a.u.)
TGTCTGTTGAATGCTTGTCGTCTATGTTTGTTCTACCGATCGGAGTCACCTAGTGCAG	10700 fluorescence intensity (a.u.)
CTTTGCAATGTCCTGACATAGTGTTGTTGTGTTCTGTAAGCGGAGTCACCTAGTGCAG	8220 fluorescence intensity (a.u.)
TCACTTTAAATTTTTCACTTCCTTCTTCATTTTATTCACTCGGAGTCACCTAGTGCAG	8800 fluorescence intensity (a.u.)
GCTTACTTCCATCATGTTTCTATCTCTAATATCTTTGATACGGAGTCACCTAGTGCAG	9310 fluorescence intensity (a.u.)
CATTGCCGCGCCGAGCTCTTCTTCTTCACCATCAGCGAAGCGGAGTCACCTAGTGCAG	8740 fluorescence intensity (a.u.)
ATGCGTTTTCTTGGCTGGCACTGGTAGTATGTACTGTACTCGGAGTCACCTAGTGCAG	8210 fluorescence intensity (a.u.)
ACTGTGCAAAAGTTGGTATCTTTATTTCTCCATATAGTTTCGGAGTCACCTAGTGCAG	8630 fluorescence intensity (a.u.)
CCTCTCCCTTCTCCTCTTTATCTATTTCCATTTGCATTTCCGGAGTCACCTAGTGCAG	8920 fluorescence intensity (a.u.)
TCTTATATGTTATGCAAGTATGTTTCTATCTCGTATCTTCCGGAGTCACCTAGTGCAG	16500 fluorescence intensity (a.u.)

Sequence	binding signal
GATCTTGATGAGTTATACCACTTTATTGTTGATGACCTTTCGGAGTCACCTAGTGCAG	8120 fluorescence intensity (a.u.)
CTGATCATTGCTGCTCATGGCCTCACCGATCGTTCGATCTCGGAGTCACCTAGTGCAG	8070 fluorescence intensity (a.u.)
TTTGTCTCGCAATTTACACGTAAACTGTGTCATTGATTTTCGGAGTCACCTAGTGCAG	8920 fluorescence intensity (a.u.)
TCGTCAGTTGGTCTCCTTACCAACTTGATTAGTAGTAGTACGGAGTCACCTAGTGCAG	8030 fluorescence intensity (a.u.)
TCTTGCCCTAAGGGGCTGTATTTTTCTCCCGCTATATTTACGGAGTCACCTAGTGCAG	10200 fluorescence intensity (a.u.)
GTATATACATACACTGTCGTTTAATCACACACGCCTGCTTCGGAGTCACCTAGTGCAG	9990 fluorescence intensity (a.u.)
CAGCCAACATTGATATGTTGTTTAGTCCATGTAGTCCCAACGGAGTCACCTAGTGCAG	9120 fluorescence intensity (a.u.)
TGTTTATTATCCTCTCTTGTTCCTCTTTTCTCTCTCCAATCGGAGTCACCTAGTGCAG	11100 fluorescence intensity (a.u.)
TTTTAACTTTTTCGTCACATCGTTCTAATTTCAACTAAACCGGAGTCACCTAGTGCAG	8080 fluorescence intensity (a.u.)
TTTCTGCACTTCTTTTCTTTTGGCACATTCTCATCGTATTCGGAGTCACCTAGTGCAG	8610 fluorescence intensity (a.u.)
AGTAGTTCAAGTTATATAAGGTATTTCCTCCGTTTCACAACGGAGTCACCTAGTGCAG	9010 fluorescence intensity (a.u.)
CCATCATGTCGTCCTCGAGCCCCGCGCGCCATCATATCGTCGGAGTCACCTAGTGCAG	9680 fluorescence intensity (a.u.)
TTCACTCATCACTTATCACTCATTCTTTCATTCCTCACTCCGGAGTCACCTAGTGCAG	9900 fluorescence intensity (a.u.)
GGATTGGGGAGTGATTCGGTTTGTTCTTGATTTTGATTTTCGGAGTCACCTAGTGCAG	15700 fluorescence intensity (a.u.)
AATGGAAAAGGGAGGGTGTTCAGCAGGCAATGGGAGTTTACGGAGTCACCTAGTGCAG	10600 fluorescence intensity (a.u.)
CTCCTCGTCGTCATCGACATCGTATCACTCACTGCTCACTCGGAGTCACCTAGTGCAG	9850 fluorescence intensity (a.u.)
AGGTGACGACTCTCCTTTTCCGGCTTCTTCTCTTCTTTCCCGGAGTCACCTAGTGCAG	16200 fluorescence intensity (a.u.)
AGCCGTCCGATCGTCCGCCACGTCATCGATCCGCGTGACTCGGAGTCACCTAGTGCAG	9920 fluorescence intensity (a.u.)
TGCTATACTGCCGAGGGACCTCGTTTGTACGGTTTTGTAACGGAGTCACCTAGTGCAG	8760 fluorescence intensity (a.u.)
GCAACCACCAGCTGACAGGGCGTTTTCTCACGTCGCATTTCGGAGTCACCTAGTGCAG	9280 fluorescence intensity (a.u.)
AACGCGGCCATCGCTTTTGCTGTACTTTGCCTTCCGCTTTCGGAGTCACCTAGTGCAG	11000 fluorescence intensity (a.u.)

Sequence	binding signal
TTCCTTGGCCATCTCTGCCTTTTCCTTCCTACTTTTCTCACGGAGTCACCTAGTGCAG	8800 fluorescence intensity (a.u.)
CATAAAGAGAACTCTGCATATTCCTGTTTTCTCTTAACCTCGGAGTCACCTAGTGCAG	8680 fluorescence intensity (a.u.)
AGGTCAGTTCTTTAGTTCAGGTGTTTCTGGTATTATTTTCCGGAGTCACCTAGTGCAG	8060 fluorescence intensity (a.u.)
CTCCCCGCGAACCCACTCCCAGCCGCCGCCGCCGCCACCTCGGAGTCACCTAGTGCAG	8640 fluorescence intensity (a.u.)
GTGGGTGGTTGGGCCTGTTGCAACGTGGTATAGCGTTGGACGGAGTCACCTAGTGCAG	12400 fluorescence intensity (a.u.)
GTCACTGCGTGTGTTAGGGAAGGGGAGGGAGAGCGAGAGGCGGAGTCACCTAGTGCAG	8700 fluorescence intensity (a.u.)
TTAAGTCCCTACACATTGCAAATTGCAGTACTTTCTTTAACGGAGTCACCTAGTGCAG	8900 fluorescence intensity (a.u.)
TTTCCATTTCCTACCCCTTTAATTCCTACATTTTTCCTATCGGAGTCACCTAGTGCAG	8130 fluorescence intensity (a.u.)
CTATTACATGCCGCACAAGCCCACAGCCCACTCACTCCTCCGGAGTCACCTAGTGCAG	8040 fluorescence intensity (a.u.)
TAATGGACCACTCTGTTTTCTGTGTTCAGGAGATTTATTTCGGAGTCACCTAGTGCAG	8180 fluorescence intensity (a.u.)
TCCTTCTATCTTGCTATCTATTCTCAATTGAACCTCTTTTCGGAGTCACCTAGTGCAG	8100 fluorescence intensity (a.u.)
TCTTCAATCTGCTGGATTCAGACCCTTGTCTCCTGTGTTCCGGAGTCACCTAGTGCAG	8030 fluorescence intensity (a.u.)
CTTTTCTGTGGTTGTTCTCTCTAGGTTTGGTGACCGTCTGCGGAGTCACCTAGTGCAG	8220 fluorescence intensity (a.u.)
CCGTCCATTTCACGACATCAACTGATCGATTCAACCCAAACGGAGTCACCTAGTGCAG	11200 fluorescence intensity (a.u.)
ACGCCGGCTTCCATCTCCGCCGCTCGCGCCTCTCGCGCCGCGGAGTCACCTAGTGCAG	8840 fluorescence intensity (a.u.)
TCTATTTTCCTTTTTTTTTTGTCTAGTGTGTTGGCTTTTACGGAGTCACCTAGTGCAG	12200 fluorescence intensity (a.u.)
TTTCAGGTTTTGCATTTCACACCTCTGTCGTCATACTTGACGGAGTCACCTAGTGCAG	17800 fluorescence intensity (a.u.)
CGACAATATTCGATTCCGTTTTTATATCTGAGTTTTCAATCGGAGTCACCTAGTGCAG	9460 fluorescence intensity (a.u.)
ACGGAGGGAGGGGCTGTTCAGATTGATGTCATTTTCAACCCGGAGTCACCTAGTGCAG	9140 fluorescence intensity (a.u.)
TTTTTTGTGAGATTTGTCGCACCGAGTTTCGCTATTTTCACGGAGTCACCTAGTGCAG	10100 fluorescence intensity (a.u.)
GTTCTCGGTGTGTACTTGGTCCATCAGTCTCTTCAGATCTCGGAGTCACCTAGTGCAG	8120 fluorescence intensity (a.u.)

Rewritten with each value named: part of the list above
TTCCTTGGCCATCTCTGCCTTTTCCTTCCTACTTTTCTCACGGAGTCACCTAGTGCAG
  binding signal = 8800 fluorescence intensity (a.u.)
CATAAAGAGAACTCTGCATATTCCTGTTTTCTCTTAACCTCGGAGTCACCTAGTGCAG
  binding signal = 8680 fluorescence intensity (a.u.)
AGGTCAGTTCTTTAGTTCAGGTGTTTCTGGTATTATTTTCCGGAGTCACCTAGTGCAG
  binding signal = 8060 fluorescence intensity (a.u.)
CTCCCCGCGAACCCACTCCCAGCCGCCGCCGCCGCCACCTCGGAGTCACCTAGTGCAG
  binding signal = 8640 fluorescence intensity (a.u.)

More results.

Sequence	binding signal
TTTCTTGCTAGCTTTAAGGTGTGGCCGTGTCATTGTCACTCGGAGTCACCTAGTGCAG	9170 fluorescence intensity (a.u.)
ATTCCAAGCTCCATTGCATCTCTCACACGCTGTCCCCAGTCGGAGTCACCTAGTGCAG	12700 fluorescence intensity (a.u.)
ATCCCCAACAGTTTCGTTTTTTATTTGCCCATTTTGTTTGCGGAGTCACCTAGTGCAG	13700 fluorescence intensity (a.u.)
CCTCACTCGCTAACCGTTACTGCGCGCCGCTGCCGCCCCGCGGAGTCACCTAGTGCAG	9350 fluorescence intensity (a.u.)
GCTCTCATGGCCTCACACACCGCGCCATTGCCATCGTTTCCGGAGTCACCTAGTGCAG	17000 fluorescence intensity (a.u.)
TCGTTGTAGTTTTACTTGTCTTATCAATTTTGCATGAATTCGGAGTCACCTAGTGCAG	9050 fluorescence intensity (a.u.)
CCGGCCCCTTTTTTTCCCGGGGATCCGGTGCGTGCAGGAACGGAGTCACCTAGTGCAG	9630 fluorescence intensity (a.u.)
CTACTCCACAGCATCCATCATCCACAGCTGAGAGATTTGACGGAGTCACCTAGTGCAG	9610 fluorescence intensity (a.u.)
CTCTTGTTGCTTCTGGTATGAATAAGGATGACGCCTCTCACGGAGTCACCTAGTGCAG	8600 fluorescence intensity (a.u.)
AAATCTGTAGCCCGCTGCTTTTCTCTCTCCTTATTTATCTCGGAGTCACCTAGTGCAG	11200 fluorescence intensity (a.u.)
AAGGCTTATCACTTCGATTTTTATTTTAGTCCTTGTACTTCGGAGTCACCTAGTGCAG	8460 fluorescence intensity (a.u.)
CCTAAACACCTTTGTACCTTTTGGCATCTCAATTCTTTGGCGGAGTCACCTAGTGCAG	8270 fluorescence intensity (a.u.)
CGCCCGCCACAGCAGCCGCTCCGCCACTGCCCGCAGCCGCCGGAGTCACCTAGTGCAG	8150 fluorescence intensity (a.u.)
GGGGTGTTTGGTTCGGAAAGTGATCCTCATGTGCAGTTGACGGAGTCACCTAGTGCAG	12300 fluorescence intensity (a.u.)
TCTCGGCCTCTGAAAGCCCATATACAATTGCCTTACCTGTCGGAGTCACCTAGTGCAG	8790 fluorescence intensity (a.u.)
AACATTATATAACACCTACACATCGTGAGATCCATGCATCCGGAGTCACCTAGTGCAG	9590 fluorescence intensity (a.u.)
CACAAGTGAACTCCACCGCGGCGTCCGATCGGAAATCAACCGGAGTCACCTAGTGCAG	8090 fluorescence intensity (a.u.)
TCATGTCCTCATGTTGCAGTTGTCTTTTCCTTGTCTCTCCCGGAGTCACCTAGTGCAG	9050 fluorescence intensity (a.u.)
CGTTGACCTCACCGCTGCCGCCATCGTCGCCACCTTCGCCCGGAGTCACCTAGTGCAG	10200 fluorescence intensity (a.u.)
AAACGCTATTGACTTTTTTTATAAATGTATGACCATTCGTCGGAGTCACCTAGTGCAG	10400 fluorescence intensity (a.u.)
TCTTCCCGCCTCGCCACCGCCGCCGCTCGCCTCACCGATGCGGAGTCACCTAGTGCAG	10200 fluorescence intensity (a.u.)

Reprinted at random: 2 entries already listed
Sequence	binding signal
TTAAGTCCCTACACATTGCAAATTGCAGTACTTTCTTTAACGGAGTCACCTAGTGCAG	8900 fluorescence intensity (a.u.)
TCTACGTTGCGGCATTGGCTGGGATTCTTGAGGGATTTCGCGGAGTCACCTAGTGCAG	9420 fluorescence intensity (a.u.)
